Measured values: paper PMC7819943, “Rice protein-binding microarrays: a tool to detect cis-acting elements near promoter regions in rice”
Some of the results follow.

Protein sequences, listed by entry. Tags and fused reporters are not part of them.
UniProt Q0JBA9, entry or part of it: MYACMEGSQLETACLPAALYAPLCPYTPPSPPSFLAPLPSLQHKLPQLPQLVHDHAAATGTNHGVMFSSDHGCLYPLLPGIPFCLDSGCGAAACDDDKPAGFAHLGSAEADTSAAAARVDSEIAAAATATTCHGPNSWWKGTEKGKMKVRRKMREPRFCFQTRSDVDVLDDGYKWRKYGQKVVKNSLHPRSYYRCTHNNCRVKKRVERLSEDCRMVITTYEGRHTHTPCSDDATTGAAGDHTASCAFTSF

biological target: OsWRKY34 (Oryza sativa, UniProt Q0JBA9 1-250); assay: protein-binding microarray (RPBM); PBS, 2% BSA, 51.3 ng/ul salmon testes DNA, 50 uM zinc acetate, 200 nM TF, 25 C, 1 h; high values mean tight binding; settings: protein: recombinant; tags: N-terminal polyhistidine and DsRed monomer fusion (pET32a); label: CyDye5-dUTP incorporated in the synthesized complementary strand; 3' TTTTT single-stranded linker to array surface; dsDNA, one strand shown
Method in brief: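 Binding signal here means per-feature fluorescence intensity in arbitrary units. The values were read on an Axon 4000B scanner after a custom Agilent array, double-stranded by primer extension with Cy5-dUTP, was incubated with 200 nM protein at 25 °C for 1 h in PBS with 2% BSA, salmon testes DNA and 50 µM zinc acetate, then washed. The proteins were transcription factors with an N-terminal polyhistidine tag and DsRed, expressed in E. coli BL21-CodonPlus and purified on Ni–NTA.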

Sequence | binding signal
CTCACCATCGCCGGCCGTCGACCCAATCCCAGCGACCATGCGGAGTCACCTAGTGCAG | 10300 fluorescence intensity (a.u.)
CTAATCATTTCACACTAGTTTTCTTTCTTTCTCCTACATGCGGAGTCACCTAGTGCAG | 8620 fluorescence intensity (a.u.)
TTAGACCACCCTAATTTTCTTTTCTAGTTGTATCTATCTTCGGAGTCACCTAGTGCAG | 8920 fluorescence intensity (a.u.)
AGCTTTATTCCTCGAGGCCCATTAGTCCCTTCGTTTCCATCGGAGTCACCTAGTGCAG | 8210 fluorescence intensity (a.u.)
GTCCTACTTGTTATACACACCCTGCGTCTTGAAGTCCGTACGGAGTCACCTAGTGCAG | 10100 fluorescence intensity (a.u.)
AGACTATCATCTTGAGCTTATTCTTCCATTTGCTCCATCTCGGAGTCACCTAGTGCAG | 8950 fluorescence intensity (a.u.)
AGAACTTTTCCAGGTAGTTGCACCGGTGCTCCAGTTTGAACGGAGTCACCTAGTGCAG | 8110 fluorescence intensity (a.u.)
TATTTTCATTTACACAACAGCTAACTTTACATTTCAATTTCGGAGTCACCTAGTGCAG | 9310 fluorescence intensity (a.u.)
CTTCTCTTCATTCATGTAACATGCACTTTCACTCGTACTGCGGAGTCACCTAGTGCAG | 10600 fluorescence intensity (a.u.)
CCGCTGAGCCTGAGTCTCCTGGTCCACGTACACCCGTGGACGGAGTCACCTAGTGCAG | 8690 fluorescence intensity (a.u.)
TCCCACCTTGCGCATCTCACCACCCTTACCTTGGCCTCCTCGGAGTCACCTAGTGCAG | 8540 fluorescence intensity (a.u.)
TTATGTTAACCTCGTACTACAAGTTTTCTCCTTATAAAAACGGAGTCACCTAGTGCAG | 9820 fluorescence intensity (a.u.)
GGTCGTGTCATGTCGTTCTTGTTTTACTTCCTGTGAAGTTCGGAGTCACCTAGTGCAG | 14800 fluorescence intensity (a.u.)
GCTATCATTTATAGATTTAACCACGGTTTCTTTGTCTTTGCGGAGTCACCTAGTGCAG | 9070 fluorescence intensity (a.u.)
GAATCCTTTTATCCACGCTCTCTACACATTTTTTTTGACGCGGAGTCACCTAGTGCAG | 11000 fluorescence intensity (a.u.)
TTTTTATGGCCTTGTTACCCTCTTGTATAGCCCGTCCATACGGAGTCACCTAGTGCAG | 9120 fluorescence intensity (a.u.)
CCATTACCAGAACAGAACAGCAGGTTTTAACCTAACATTCCGGAGTCACCTAGTGCAG | 8110 fluorescence intensity (a.u.)
AATCATCCGAATCGAATCGCCCACTTCTCCTCTCGATCCGCGGAGTCACCTAGTGCAG | 11500 fluorescence intensity (a.u.)
AATTTTCTCCTTTTATCTCCTCTCAAGCATATAACACAATCGGAGTCACCTAGTGCAG | 8480 fluorescence intensity (a.u.)
ATCCATCTTAATTCGCTTCTACATTGGGGCGCTTGTTAATCGGAGTCACCTAGTGCAG | 13200 fluorescence intensity (a.u.)
ACACGTGCATGTCTTCTTATCCATCTCTATCCATCTGCATCGGAGTCACCTAGTGCAG | 9580 fluorescence intensity (a.u.)

Sequence | binding signal
CCGCGCTTCCATCTCCGGCGGTCCGGTCTATCCTCTCCGCCGGAGTCACCTAGTGCAG | 10000 fluorescence intensity (a.u.)
TCACACTCACATAGCTATATTTTTTATATTATGGACATCACGGAGTCACCTAGTGCAG | 8260 fluorescence intensity (a.u.)
AAAACTTCGACCTGCTCTACTCCCTTTTTGAGTGAAACCACGGAGTCACCTAGTGCAG | 8610 fluorescence intensity (a.u.)
CGTACCGTTGCACCACCACCACCACCCGCAACTCGCAACGCGGAGTCACCTAGTGCAG | 9770 fluorescence intensity (a.u.)
GCTTCGTTGGCTCCGTGAAACTGTCTCTCTCTCCCAACTCCGGAGTCACCTAGTGCAG | 8030 fluorescence intensity (a.u.)
TGTTCCAATCCCATCCATTCCATTCCATTCCTTCTCCCTGCGGAGTCACCTAGTGCAG | 10900 fluorescence intensity (a.u.)
TATTGCCTTGTTTTTCTTTTTTTTCCCCTCTCTTTTTCTACGGAGTCACCTAGTGCAG | 9270 fluorescence intensity (a.u.)
CTCTCTCTCCACGCAGAATGCTGCTTTCCCGTTATTTTCTCGGAGTCACCTAGTGCAG | 11200 fluorescence intensity (a.u.)
GTTCCGGAAGGTGTGGAGTCTCGGTGCCCTCGTCGCTCGCCGGAGTCACCTAGTGCAG | 8180 fluorescence intensity (a.u.)
CAAATCAGTGCTGCTGGTTACGGATAAGCCTCTCTTTTCCCGGAGTCACCTAGTGCAG | 11800 fluorescence intensity (a.u.)
TCTTGTTTAGATCCTGTCCGTTGCCTTTTCTCTTTTCCATCGGAGTCACCTAGTGCAG | 8780 fluorescence intensity (a.u.)
GATGGGCGGGCTAGGGTTTGGGATTAGGCAACCAGCTGTGCGGAGTCACCTAGTGCAG | 9070 fluorescence intensity (a.u.)
ACCGCGTGCATGTTTCTGAACCGTTAAACGGTGTATATATCGGAGTCACCTAGTGCAG | 8800 fluorescence intensity (a.u.)
CGGGAGGGGAGGGGAATGGATGTGGGGAGGAGAGAGACTGCGGAGTCACCTAGTGCAG | 12600 fluorescence intensity (a.u.)
CGCGCGCCGTCGCCGCCGCCGCCGCCTCCGCCTCCGCCTCCGGAGTCACCTAGTGCAG | 8860 fluorescence intensity (a.u.)
GGCTTTTATGGGGCGGGCTTTCTTTGGTCAATGGTCACTACGGAGTCACCTAGTGCAG | 32200 fluorescence intensity (a.u.)
CAGTTCACTGCTGTCTCTAGCTCGTACCGGCTCAGTTCATCGGAGTCACCTAGTGCAG | 10800 fluorescence intensity (a.u.)
GTATGGGTTGCGAGTGATTTATTATACCTTCTTGGTGAGACGGAGTCACCTAGTGCAG | 9750 fluorescence intensity (a.u.)
TCGGAGCTATATTAGCCGTTGACCCCGGCAATGTCAACTTCGGAGTCACCTAGTGCAG | 9680 fluorescence intensity (a.u.)
ATTCAATTCGTTCGCTCCACTAATCTTAAAAGCCATTATTCGGAGTCACCTAGTGCAG | 8270 fluorescence intensity (a.u.)
TGCCGTGTTTGGTGTTGGATCCTCCGTCTTCCCCACAAGGCGGAGTCACCTAGTGCAG | 8290 fluorescence intensity (a.u.)

4 entries from above, as tab-separated lines:
Sequence	binding signal
CTCACCATCGCCGGCCGTCGACCCAATCCCAGCGACCATGCGGAGTCACCTAGTGCAG	10300 fluorescence intensity (a.u.)
GCTATCATTTATAGATTTAACCACGGTTTCTTTGTCTTTGCGGAGTCACCTAGTGCAG	9070 fluorescence intensity (a.u.)
TTTTTATGGCCTTGTTACCCTCTTGTATAGCCCGTCCATACGGAGTCACCTAGTGCAG	9120 fluorescence intensity (a.u.)
CCATTACCAGAACAGAACAGCAGGTTTTAACCTAACATTCCGGAGTCACCTAGTGCAG	8110 fluorescence intensity (a.u.)

(further entries)

Sequence | binding signal
AATGTGTATCCGTATATTTGATATGACACGCCAAAACTTTCGGAGTCACCTAGTGCAG | 8200 fluorescence intensity (a.u.)
GTATGTAACACATTTGATCGTCGTCTTTGAGTGGTTTGACCGGAGTCACCTAGTGCAG | 8520 fluorescence intensity (a.u.)
CTCTCTCCTCCTCCGTGGGCTTCTCCAGATCCGCCCTCTTCGGAGTCACCTAGTGCAG | 9350 fluorescence intensity (a.u.)
GTGGCTTTCTGATTATATGCATGTTCCATATGGGTTTGCACGGAGTCACCTAGTGCAG | 9370 fluorescence intensity (a.u.)
TTCTTTCGGGGTCTATTTTGTAAAAATACACTGTCACTACCGGAGTCACCTAGTGCAG | 8780 fluorescence intensity (a.u.)
CTCTCCACCTCGCGCCCACGCGACACAACACACAGACACACGGAGTCACCTAGTGCAG | 8420 fluorescence intensity (a.u.)
CCTAAATATGTGGTCATATGCGTATTTTTTTTTATTTCTTCGGAGTCACCTAGTGCAG | 9500 fluorescence intensity (a.u.)
TTATTTCCGCAAATCGTTCGCTATCCGGTATATTTTTGCACGGAGTCACCTAGTGCAG | 17300 fluorescence intensity (a.u.)
CCGCCGCCCGCACGCCGCCGCTCGGCCGCCCGCACCACCGCGGAGTCACCTAGTGCAG | 8530 fluorescence intensity (a.u.)
GCGGTGGTGCGCCTCTTGTCTCTCTGTGCTGCTCTCACTACGGAGTCACCTAGTGCAG | 10800 fluorescence intensity (a.u.)
ATTCAATGCTTGCCGCCGCTCTTCGAACCTCATCAAAACTCGGAGTCACCTAGTGCAG | 9020 fluorescence intensity (a.u.)
GTATTTTAAGCATATTTTTTCGTTTTTTATATTTGTAAAACGGAGTCACCTAGTGCAG | 11000 fluorescence intensity (a.u.)
TTTTCCACGCGCACGCTTCCCAAACTGTTAAATGGTATGTCGGAGTCACCTAGTGCAG | 10400 fluorescence intensity (a.u.)
GTCTCCGTCTCCGTCCTTGGGTTGATATCCAGAATCAGTCCGGAGTCACCTAGTGCAG | 8800 fluorescence intensity (a.u.)
GTACTTGTGTTATTGCTTTTAAATTAGAGTACTCCCTAGTCGGAGTCACCTAGTGCAG | 9130 fluorescence intensity (a.u.)
CTTCTTCTTCTTTCTCGCCTCCTCTCTTTTCTCTTCTCTTCGGAGTCACCTAGTGCAG | 8350 fluorescence intensity (a.u.)
GCTTGATCATCGGCCTCAACACCCTGCATATGTGTATTCTCGGAGTCACCTAGTGCAG | 10400 fluorescence intensity (a.u.)
ATTGCCTGTCTTTCTTCATCATCTTAAGTTTTTGAGTTAACGGAGTCACCTAGTGCAG | 8970 fluorescence intensity (a.u.)
TATTTGCTTGCATCTTGGGGATCTTGATTCTCTGGGACATCGGAGTCACCTAGTGCAG | 9720 fluorescence intensity (a.u.)
AAATGCCCATCTGTTTGTACATTATCTTACCAAGGATTTTCGGAGTCACCTAGTGCAG | 8270 fluorescence intensity (a.u.)
AGTAATTTTGTTCTGATTGCATGTCTCAACAGGATGTAGACGGAGTCACCTAGTGCAG | 8550 fluorescence intensity (a.u.)

Sequence | binding signal
CGTTTTGTGCTGGGCCATATTGGGCTTTACCATAACTTTCCGGAGTCACCTAGTGCAG | 9850 fluorescence intensity (a.u.)
GAGTTTTTACTTTGTAATGTTTGACCACTCGTCTTATTCACGGAGTCACCTAGTGCAG | 8880 fluorescence intensity (a.u.)
TGGTCTGGCAGTTTTTGAGACGGGGAGTTGACTCAGATATCGGAGTCACCTAGTGCAG | 9260 fluorescence intensity (a.u.)
TGTAATTTCCTACCGTGTTTTTCTACACTTTATCACCAATCGGAGTCACCTAGTGCAG | 8190 fluorescence intensity (a.u.)
TCCGTCCTTTGCAAGCCAAATTCCTCCCGCCGCCGCCGCCCGGAGTCACCTAGTGCAG | 8170 fluorescence intensity (a.u.)
GCTAGATTGGATAAGGAGGGGAGGAGGGTGGAGGGGAGGGCGGAGTCACCTAGTGCAG | 22700 fluorescence intensity (a.u.)
CTGATTACACCTTTTTGCAGTTTAGCATTGCCACATAATCCGGAGTCACCTAGTGCAG | 13500 fluorescence intensity (a.u.)
ATCGCTTTAATATTCTTGCTCGTTATTCCTCCACCAGGTGCGGAGTCACCTAGTGCAG | 8940 fluorescence intensity (a.u.)
AAATTTATTGTTTGGCTGGAAGACGTGGGGTTTTAAGAGGCGGAGTCACCTAGTGCAG | 8370 fluorescence intensity (a.u.)
GTGCTGTTTTTATCGTCCAGGTCTTGGTACAGGTTTAGTCCGGAGTCACCTAGTGCAG | 10700 fluorescence intensity (a.u.)
GATCGAGTCGTGGGTGTGCATGGTGTGCGTGGCGTCGGTTCGGAGTCACCTAGTGCAG | 8290 fluorescence intensity (a.u.)
ACCGACACCAGGGGCCCACATACGCACGCACCTCGCACGTCGGAGTCACCTAGTGCAG | 8810 fluorescence intensity (a.u.)
TTTTTCCTTTTTCTCTTTTCTTTTTTTCTTCTCTTTTTCTCGGAGTCACCTAGTGCAG | 9820 fluorescence intensity (a.u.)
TGGGTTTCTAATGGTGGGGTTAGAGCTGGAAGGCGGAGATCGGAGTCACCTAGTGCAG | 8330 fluorescence intensity (a.u.)
CTTCCGCCAACCGCCCACCACCCGTTCGACCATTTGCTTGCGGAGTCACCTAGTGCAG | 8740 fluorescence intensity (a.u.)
AGTGCGATCTCAAGCATGCACATGTTTCTTTAGATTGTTCCGGAGTCACCTAGTGCAG | 8190 fluorescence intensity (a.u.)
ACTTTTGTTTCATTGTTAGCCCATAGTTCCTTTTTGTATTCGGAGTCACCTAGTGCAG | 11400 fluorescence intensity (a.u.)
CCGACATAACCACCTTCATGCCGCCGCCGCCGTTCGCCGGCGGAGTCACCTAGTGCAG | 10400 fluorescence intensity (a.u.)
GCTGCTAACCTCGCCCCACTTTCCCCGCCTCGGGTCGCGCCGGAGTCACCTAGTGCAG | 8480 fluorescence intensity (a.u.)
TTTCTCGGGTTGCTACTGTTCATTGCGCGCCAGGTGTTCGCGGAGTCACCTAGTGCAG | 9970 fluorescence intensity (a.u.)
GGTCTGGTTTTATCGGTTTATATGTGTGTGTTTTTTTTGTCGGAGTCACCTAGTGCAG | 33500 fluorescence intensity (a.u.)
